Consider 17 compounds from PubChem BioAssay AID2685 (National Center for Advancing Translational Sciences (NCATS), 2010).

This is one part of the list. Further columns of the screen follow, without active or inactive calls. Compounds called inactive in the main read-out are mostly missing here. Words in brackets tell the shape of the fitted curve; partial curves, single points and poor fits give uncertain potencies.

A short description of this assay: qHTS Assay for Lipid Storage Modulators in Drosophila S3 Cells.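 On cell number change: cells counted by Cell Tracker Red CMTPX staining in the red channel.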 The conditions noted are these: BODIPY lipid droplet fluorescence, 18-24 h; for cell number change: measured here: cell count max response, cells fed with added oleic acid. A digest of the protocol:
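Laser-scanning cytometry quantifies lipid droplet accumulation (500–530 nm total intensity; droplet/cell object ratio) in oleic acid-fed (400 uM added) Drosophila S3 cells treated with a concentration series. 20 uM Triacsin C defined 100% inhibition.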
(In general: In qHTS, concentration-response curves come from the screen itself.)

Setting [1] is: measured here: lipid fluorescence (Fed channel) AC50, cells fed with added oleic acid.
Where [2] appears, read: measured here: cell number channel AC50, cells fed with added oleic acid.

With `CN(C(=O)COC(=O)c1ccc(NS(=O)(=O)c2cccs2)cc1)C1CCCCC1`, the cell number change was determined as 2.71%. Besides, the concentration at half-maximal activity (AC50) (commonly the midpoint of the concentration-response curve, whichever way the signal moves) under setting [1] was 1.16 µM [falling, full curve, poor fit].

On to `CCCOc1ccc2c3c(c(=O)oc2c1OCCC)CCCC3`, for which the cell number change is -25%. The AC50 under setting [1] was 2.31 µM [rising, single point].

With `CCCCOc1ccc(C(=O)NCC(=O)NC(C)CCc2ccccc2)cc1` (centres undefined), the cell number change came out at 14.1%.

In the case of `CCN(CC)c1nc(N)c([N+](=O)[O-])c(NCCO)n1`, the cell number change amounted to 25.4%. Further, under setting [1], the AC50 is 6.51 µM [rising, single point].

For the compound `NNC(=O)c1csc(-c2cccc(C(F)(F)F)c2)n1`, the cell number change was 39.2%. Moreover, the AC50 under setting [2] is 16.4 µM [rising, single point]. For the same compound, the AC50 under setting [1] is 29.1 µM [rising, single point].

In the case of `CCOc1ccccc1-n1c(SCC(=O)N2CCCc3ccccc32)nnc1-c1cccnc1`, the cell number change is -11.9%. Further, the AC50 under setting [1] was 0.116 µM [rising, full curve, poor fit].

Consider `Cc1cccc(Nc2nc(OCC#N)nc(N(C)C)n2)c1`, for which the cell number change was found to be 2.36%.

Consider `Cc1ccc(NC(=O)c2ccc(=O)n(CC(=O)Nc3c(C)cc(C)cc3C)n2)cc1`, for which the cell number change amounted to 186%. Further, under setting [2], the AC50 was 20.6 µM [rising, single point]. The AC50 under setting [1] is 29.1 µM [rising, partial curve, poor fit].

`COc1cc(CN2CCC(n3nccc3NC(=O)C3CC3)CC2)cc(OC)c1`: the cell number change was -18.3%. Moreover, under setting [1], the AC50 was 0.58 µM [rising, single point].

With `O=C1/C(=C/c2cccc([N+](=O)[O-])c2)Oc2cc(O)ccc21`, the cell number change was -7.21%. Also, the AC50 under setting [1] is 29.1 µM [falling, single point].

With `c1cc2c(cc1CN1CCOCC1)OCO2`, the cell number change was 24.1%. The AC50 under setting [1] is 9.2 µM [rising, partial curve].

Turning to `COc1ccc(NC(=O)CC(Cc2ccccc2)C(=O)O)cc1` (centres undefined), the cell number change is 0.132%. The AC50 under setting [1] was 7.31 µM [falling, partial curve].

As for `CCCCn1c(Cc2ccccc2)n[nH]c1=S`, the cell number change came out at 88.1%. Moreover, the AC50 under setting [2] is 0.517 µM [rising, full curve]. The AC50 under setting [1] was 0.517 µM [rising, full curve].

With `COc1ccc(CCN2C(=NC(C)=O)SC3CS(=O)(=O)CC32)cc1OC` (centres undefined), the cell number change came out at 36.8%. Moreover, the AC50 under setting [2] is 2.06 µM [rising, partial curve].

Consider `Oc1ccc(N2CCN(Cc3ccc(OCCCN4CCCCC4)cc3)CC2)cc1`, for which the cell number change was -10.7%. Also, the AC50 under setting [1] is 6.51 µM [rising, partial curve, poor fit].

As to `COc1ccc(/C=N\NC(=O)c2ccccc2)cc1COc1ccc(F)cc1`, the cell number change is -35.1%. Under setting [2], the AC50 was 2.06 µM [falling, full curve, poor fit].

`COc1ccc(OCCNS(=O)(=O)c2ccccc2)cc1`: the cell number change was determined as 19.9%.
